From publication PMC3877047 (PLoS ONE, 2013)
Results are given in words; binding and its absence hold for the method and conditions named. Some binding calls cover weakened binding; strength is not graded here. For some assays here: Sequences can lack the tags named with a protein.

Chains of the proteins cited; added tags and fusions are not shown. Lines headed by an entry give the natural chain unless they say otherwise; changes in a name come on top. A line that says so, or that is headed by a name, gives the form on record, which may keep a tag or linker. Residues count along the entry.
Sx4(1-275)-His (C-terminally His6-tagged Syntaxin4 C141S, residues 1-275) (P70452, form named): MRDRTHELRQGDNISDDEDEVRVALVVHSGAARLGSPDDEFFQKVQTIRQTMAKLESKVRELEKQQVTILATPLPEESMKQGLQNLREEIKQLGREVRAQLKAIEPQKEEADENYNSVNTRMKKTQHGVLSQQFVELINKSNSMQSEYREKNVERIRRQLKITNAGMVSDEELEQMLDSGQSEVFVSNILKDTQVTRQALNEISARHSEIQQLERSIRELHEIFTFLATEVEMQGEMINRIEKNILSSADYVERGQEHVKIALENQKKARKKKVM

B1: SNAP23 (protein, UniProt O09044 1-210)
chain: MDNLSPEEVQLRAHQVTDESLESTRRILGLAIESQDAGIKTITMLDEQGEQLNRIEEGMDQINKDMREAEKTLTELNKCCGLCICPCNRTKNFESGKNYKATWGDGGDNSPSNVVSKQPSRITNGQPQQTTGAASGGYIKRITNDAREDEMEENLTQVGSILGNLKNMALDMGNEIDAQNQQIQKITEKADTNKNRIDIANTRAKKLIDS
B2: Munc18c (un-tagged) (natural protein, mouse, UniProt Q60770 1-592, looked up)
chain: MAPPVSERGLKSVVWRKIKTAVFDDCRKEGEWKIMLLDEFTTKLLSSCCKMTDLLEEGITVIENIYKNREPVRQMKALYFISPTPKSVDCFLRDFGSKSEKKYKAAYIYFTDFCPDSLFNKIKASCSKSIRRCKEINISFIPQESQVYTLDVPDAFYYCYSPDPSNASRKEVVMEAMAEQIVTVCATLDENPGVRYKSKPLDNASKLAQLVEKKLEDYYKIDEKGLIKGKTQSQLLIIDRGFDPVSTVLHELTFQAMAYDLLPIENDTYKYKTDGKEKEAVLEEDDDLWVRVRHRHIAVVLEEIPKLMKEISSTKKATEGKTSLSALTQLMKKMPHFRKQISKQVVHLNLAEDCMNKFKLNIEKLCKTEQDLALGTDAEGQRVKDSMLVLLPVLLNKNHDNCDKIRAVLLYIFGINGTTEENLDRLIHNVKIEDDSDMIRNWSHLGVPIVPPSQQAKPLRKDRSAEETFQLSRWTPFIKDIMEDAIDNRLDSKEWPYCSRCPAVWNGSGAVSARQKPRTNYLELDRKNGSRLIIFVIGGITYSEMRCAYEVSQAHKSCEVIIGSTHILTPRKLLDDIKMLNKSKDKVSFKDE
notes: made from pQE30-HMunc18c by PCR that removes the His6 codons; A few vector-encoded residues may be left at the N-terminus (surmised); also called untagged Munc18c; un-tagged Munc18c

Assays:
[1] = molecular target: Sx4(1-275)-His (C-terminally His6-tagged Syntaxin4 C141S, residues 1-275) (UniProt P70452); assay: pull-down; purified Sx4(1-275)-His, SNAP23 and VAMP2 mixed 1:1:1, overnight at 4°C; complex captured on TALON beads by the His6 tag of Sx4(1-275)-His; SDS-PAGE; both purified
[2] = molecular target: HMunc18c (His6-tagged full-length mouse Munc18c from a codon-optimised synthetic gene in pQE30) (mouse) (UniProt Q60770); assay: SEC-MALS; HMunc18c 2.5 mg/mL, S200 10/300 GL, room temperature; 25 mM Tris-HCl pH 7.5, 300 mM NaCl, 2 mM βME, 10% glycerol; both purified

Binder | binding [1] | binding [2]
B1 | binds | –
B2 | – | no binding (tested: 2.5 mg/mL)
